# Measured values reported in the supplement of paper PMC12819154, “High-throughput peptide-centric local stability assay extends protein–ligand identification to membrane proteins, tissues and bacteria” (Nature Structural & Molecular Biology, 2025).
# By UniProt entry, the sequences of proteins in these tests, tags left out. Where a name states a change or a piece, a line headed by the entry shows the natural chain unless it says otherwise.
# UniProt Q9Y3B4: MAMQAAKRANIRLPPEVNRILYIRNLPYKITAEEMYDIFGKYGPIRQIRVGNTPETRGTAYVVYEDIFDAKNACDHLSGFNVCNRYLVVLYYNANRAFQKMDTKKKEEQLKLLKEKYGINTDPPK
# UniProt Q9Y2H1: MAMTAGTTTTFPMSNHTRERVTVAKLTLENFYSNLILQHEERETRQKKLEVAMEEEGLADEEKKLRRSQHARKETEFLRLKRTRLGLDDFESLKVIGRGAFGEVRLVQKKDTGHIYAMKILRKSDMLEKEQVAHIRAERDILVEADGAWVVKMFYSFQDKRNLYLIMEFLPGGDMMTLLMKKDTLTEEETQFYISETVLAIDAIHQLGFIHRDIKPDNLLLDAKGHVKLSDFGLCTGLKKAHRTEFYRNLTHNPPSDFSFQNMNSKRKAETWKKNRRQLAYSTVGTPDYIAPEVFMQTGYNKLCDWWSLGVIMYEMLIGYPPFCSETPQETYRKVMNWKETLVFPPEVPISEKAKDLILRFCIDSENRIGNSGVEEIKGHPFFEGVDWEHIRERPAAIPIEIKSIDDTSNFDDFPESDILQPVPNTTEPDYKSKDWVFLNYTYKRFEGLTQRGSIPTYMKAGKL
# UniProt Q9Y5Z4: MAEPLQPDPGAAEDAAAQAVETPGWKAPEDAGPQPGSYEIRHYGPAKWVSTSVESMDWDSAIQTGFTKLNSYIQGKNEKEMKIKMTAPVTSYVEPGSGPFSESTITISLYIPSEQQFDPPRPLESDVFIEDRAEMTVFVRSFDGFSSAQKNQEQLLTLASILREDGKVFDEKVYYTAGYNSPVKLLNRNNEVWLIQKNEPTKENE
# UniProt Q9Y2I7: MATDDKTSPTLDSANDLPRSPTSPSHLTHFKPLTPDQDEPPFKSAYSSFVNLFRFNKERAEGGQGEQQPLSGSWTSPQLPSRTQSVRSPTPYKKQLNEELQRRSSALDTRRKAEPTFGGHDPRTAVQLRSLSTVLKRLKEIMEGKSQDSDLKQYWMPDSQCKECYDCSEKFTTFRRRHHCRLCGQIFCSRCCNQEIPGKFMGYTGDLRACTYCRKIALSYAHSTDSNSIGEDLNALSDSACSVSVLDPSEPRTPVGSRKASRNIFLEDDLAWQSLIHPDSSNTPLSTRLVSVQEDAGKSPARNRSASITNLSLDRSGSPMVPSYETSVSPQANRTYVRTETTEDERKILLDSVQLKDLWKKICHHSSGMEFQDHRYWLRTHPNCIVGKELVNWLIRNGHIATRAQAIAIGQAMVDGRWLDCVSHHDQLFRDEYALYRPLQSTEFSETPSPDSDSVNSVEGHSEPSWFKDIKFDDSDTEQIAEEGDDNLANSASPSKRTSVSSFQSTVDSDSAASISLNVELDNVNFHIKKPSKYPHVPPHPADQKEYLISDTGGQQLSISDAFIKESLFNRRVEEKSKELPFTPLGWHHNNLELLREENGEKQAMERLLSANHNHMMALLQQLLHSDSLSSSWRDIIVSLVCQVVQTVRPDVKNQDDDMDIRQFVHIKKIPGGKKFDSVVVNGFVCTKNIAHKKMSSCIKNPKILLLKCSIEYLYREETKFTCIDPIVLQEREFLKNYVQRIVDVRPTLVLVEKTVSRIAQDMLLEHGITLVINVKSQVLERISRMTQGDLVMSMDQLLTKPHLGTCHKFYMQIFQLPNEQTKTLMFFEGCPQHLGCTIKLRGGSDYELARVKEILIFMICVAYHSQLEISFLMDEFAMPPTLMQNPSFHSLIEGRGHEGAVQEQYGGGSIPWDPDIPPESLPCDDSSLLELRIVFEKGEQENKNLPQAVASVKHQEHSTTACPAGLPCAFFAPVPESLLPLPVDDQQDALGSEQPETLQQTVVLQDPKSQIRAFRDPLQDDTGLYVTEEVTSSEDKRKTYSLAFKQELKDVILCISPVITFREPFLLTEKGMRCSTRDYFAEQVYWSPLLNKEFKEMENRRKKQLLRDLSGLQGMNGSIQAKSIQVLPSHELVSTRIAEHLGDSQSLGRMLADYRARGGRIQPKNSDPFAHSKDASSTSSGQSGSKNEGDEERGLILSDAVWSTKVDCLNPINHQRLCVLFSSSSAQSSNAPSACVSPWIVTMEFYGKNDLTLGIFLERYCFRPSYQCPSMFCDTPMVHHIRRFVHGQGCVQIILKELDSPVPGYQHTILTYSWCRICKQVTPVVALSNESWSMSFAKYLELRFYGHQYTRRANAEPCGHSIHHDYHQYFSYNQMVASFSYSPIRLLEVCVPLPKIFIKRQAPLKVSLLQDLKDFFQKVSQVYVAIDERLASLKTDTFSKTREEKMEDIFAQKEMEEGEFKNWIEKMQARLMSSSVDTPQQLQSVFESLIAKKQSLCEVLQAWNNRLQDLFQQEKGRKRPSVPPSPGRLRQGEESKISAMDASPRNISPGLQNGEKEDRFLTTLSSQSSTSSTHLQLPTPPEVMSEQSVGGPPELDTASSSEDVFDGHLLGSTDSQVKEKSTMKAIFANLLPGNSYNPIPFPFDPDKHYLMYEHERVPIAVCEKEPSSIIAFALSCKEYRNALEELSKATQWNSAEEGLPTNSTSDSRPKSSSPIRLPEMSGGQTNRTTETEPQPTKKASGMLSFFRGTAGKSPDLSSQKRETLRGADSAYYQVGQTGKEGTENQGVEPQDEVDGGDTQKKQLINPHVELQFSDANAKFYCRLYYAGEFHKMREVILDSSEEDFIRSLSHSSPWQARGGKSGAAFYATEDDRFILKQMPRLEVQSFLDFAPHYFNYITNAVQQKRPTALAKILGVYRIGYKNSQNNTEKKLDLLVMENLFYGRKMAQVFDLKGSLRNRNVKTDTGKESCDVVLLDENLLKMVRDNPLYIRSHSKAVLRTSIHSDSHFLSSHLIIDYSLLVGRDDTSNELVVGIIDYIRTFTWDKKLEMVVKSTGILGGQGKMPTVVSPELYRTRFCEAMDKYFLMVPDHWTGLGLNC
# UniProt Q9Y2T2: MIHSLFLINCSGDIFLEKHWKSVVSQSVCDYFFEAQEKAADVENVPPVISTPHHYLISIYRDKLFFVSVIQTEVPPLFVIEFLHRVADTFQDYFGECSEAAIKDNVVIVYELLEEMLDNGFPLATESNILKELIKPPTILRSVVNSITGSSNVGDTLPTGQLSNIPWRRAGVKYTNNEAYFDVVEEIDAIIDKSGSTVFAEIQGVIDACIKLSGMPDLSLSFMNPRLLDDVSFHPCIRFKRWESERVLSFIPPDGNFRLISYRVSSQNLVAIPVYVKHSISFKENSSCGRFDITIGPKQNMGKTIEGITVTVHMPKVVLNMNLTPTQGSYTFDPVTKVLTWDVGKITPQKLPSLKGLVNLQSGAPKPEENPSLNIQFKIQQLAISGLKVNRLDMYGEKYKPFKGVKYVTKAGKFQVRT
# UniProt Q9Y4E1, whole entry: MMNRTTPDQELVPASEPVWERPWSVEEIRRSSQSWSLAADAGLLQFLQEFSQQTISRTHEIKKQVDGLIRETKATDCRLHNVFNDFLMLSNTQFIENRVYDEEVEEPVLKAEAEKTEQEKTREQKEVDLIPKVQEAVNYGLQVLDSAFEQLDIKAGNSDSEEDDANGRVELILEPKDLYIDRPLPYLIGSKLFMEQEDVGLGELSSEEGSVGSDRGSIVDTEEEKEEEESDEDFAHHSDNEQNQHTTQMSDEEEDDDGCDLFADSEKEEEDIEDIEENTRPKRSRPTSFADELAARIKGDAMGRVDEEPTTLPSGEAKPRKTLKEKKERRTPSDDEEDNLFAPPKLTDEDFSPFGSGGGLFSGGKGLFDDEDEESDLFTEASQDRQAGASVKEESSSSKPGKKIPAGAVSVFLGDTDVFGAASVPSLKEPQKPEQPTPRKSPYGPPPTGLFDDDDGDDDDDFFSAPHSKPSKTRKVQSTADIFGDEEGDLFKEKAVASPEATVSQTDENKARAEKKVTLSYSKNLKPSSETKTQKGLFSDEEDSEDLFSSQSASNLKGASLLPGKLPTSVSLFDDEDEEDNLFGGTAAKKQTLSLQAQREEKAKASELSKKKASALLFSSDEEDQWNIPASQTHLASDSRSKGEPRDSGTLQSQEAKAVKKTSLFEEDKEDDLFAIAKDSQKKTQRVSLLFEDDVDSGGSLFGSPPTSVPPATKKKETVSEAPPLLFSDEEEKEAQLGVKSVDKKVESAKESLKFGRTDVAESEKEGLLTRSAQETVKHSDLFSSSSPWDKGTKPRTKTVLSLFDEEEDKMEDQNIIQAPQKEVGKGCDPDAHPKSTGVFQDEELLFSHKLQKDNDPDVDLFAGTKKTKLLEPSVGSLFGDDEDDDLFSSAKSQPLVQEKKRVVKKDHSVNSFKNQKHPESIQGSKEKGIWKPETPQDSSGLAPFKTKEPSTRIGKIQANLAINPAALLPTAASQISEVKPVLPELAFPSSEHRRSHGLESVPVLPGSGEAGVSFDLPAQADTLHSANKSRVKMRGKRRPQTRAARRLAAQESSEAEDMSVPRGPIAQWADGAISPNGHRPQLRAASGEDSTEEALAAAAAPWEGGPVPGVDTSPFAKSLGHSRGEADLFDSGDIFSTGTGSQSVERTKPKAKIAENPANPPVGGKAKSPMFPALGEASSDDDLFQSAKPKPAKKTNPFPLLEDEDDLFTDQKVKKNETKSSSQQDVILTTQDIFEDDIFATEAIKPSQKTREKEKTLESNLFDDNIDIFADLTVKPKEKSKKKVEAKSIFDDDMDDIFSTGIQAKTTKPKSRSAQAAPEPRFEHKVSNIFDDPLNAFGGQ
# UniProt Q9Y5X0: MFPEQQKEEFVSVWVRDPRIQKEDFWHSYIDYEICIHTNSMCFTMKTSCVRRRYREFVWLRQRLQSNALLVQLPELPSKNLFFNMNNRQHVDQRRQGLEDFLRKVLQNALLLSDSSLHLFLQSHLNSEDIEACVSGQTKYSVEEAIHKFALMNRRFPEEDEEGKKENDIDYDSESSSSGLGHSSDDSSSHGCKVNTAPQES
# UniProt Q9Y276: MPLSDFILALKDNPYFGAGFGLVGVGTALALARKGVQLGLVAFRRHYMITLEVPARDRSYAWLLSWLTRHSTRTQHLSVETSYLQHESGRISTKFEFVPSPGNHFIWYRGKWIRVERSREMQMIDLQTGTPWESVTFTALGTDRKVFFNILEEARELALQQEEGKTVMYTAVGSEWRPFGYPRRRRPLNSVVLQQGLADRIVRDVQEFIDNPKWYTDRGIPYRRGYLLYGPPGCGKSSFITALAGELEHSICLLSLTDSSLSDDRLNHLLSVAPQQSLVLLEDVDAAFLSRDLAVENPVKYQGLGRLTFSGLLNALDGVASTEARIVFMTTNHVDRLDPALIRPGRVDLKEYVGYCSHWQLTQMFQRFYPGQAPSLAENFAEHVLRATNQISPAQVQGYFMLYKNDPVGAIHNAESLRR
# This is one part of the list. Most entries show no effect beyond the scatter of the controls.
# Compound: Cc1nc(Nc2ncc(C(=O)Nc3c(C)cccc3Cl)s2)cc(N2CCN(CCO)CC2)n1 [dasatinib]
# Assay: log2 fold change of tryptic peptide abundance, ligand vs vehicle (limited proteolysis) (log2 ratio); higher = more trypsin-susceptible (destabilized)
# Conditions: ligand concentration: 5 uM; sample: K562 cleared lysate
row,Target,log2 fold change
1,"UniProt Q9Y3B4 (peptide sequence: KKEEQLK, peptide start residue: 105)",-0.125
2,"UniProt Q9Y2H1 (peptide sequence: SKDWVFLNYTYK, peptide start residue: 433)",0.821
3,"HEBP2 (peptide sequence: NEPTKENE, peptide start residue: 198) (UniProt Q9Y5Z4)",-0.202
4,"UniProt Q9Y2I7 (peptide sequence: VSQVYVAIDER, peptide start residue: 1420)",-0.257
5,"AP3M1 (peptide sequence: VLTWDVGK, peptide start residue: 338) (UniProt Q9Y2T2)",0.703
6,"UniProt Q9Y4E1 (peptide sequence: DNDPDVDLFAGTKK, peptide start residue: 854)",0.299
7,"SNX10 (peptide sequence: RFPEEDEEGK, peptide start residue: 155) (UniProt Q9Y5X0)",0.0754
8,"BCS1L (peptide sequence: GYLLYGPPGCGK, peptide start residue: 225) (UniProt Q9Y276)",0.431

# A different layout for some results above.
row | Target | log2 fold change
5 | AP3M1 (peptide sequence: VLTWDVGK, peptide start residue: 338) (UniProt Q9Y2T2) | 0.703
6 | UniProt Q9Y4E1 (peptide sequence: DNDPDVDLFAGTKK, peptide start residue: 854) | 0.299
